Experimental findings from article PMC10531384 are described below.

The chains behind the UniProt entries cited, without tags or fusion partners.
UniProt P21333: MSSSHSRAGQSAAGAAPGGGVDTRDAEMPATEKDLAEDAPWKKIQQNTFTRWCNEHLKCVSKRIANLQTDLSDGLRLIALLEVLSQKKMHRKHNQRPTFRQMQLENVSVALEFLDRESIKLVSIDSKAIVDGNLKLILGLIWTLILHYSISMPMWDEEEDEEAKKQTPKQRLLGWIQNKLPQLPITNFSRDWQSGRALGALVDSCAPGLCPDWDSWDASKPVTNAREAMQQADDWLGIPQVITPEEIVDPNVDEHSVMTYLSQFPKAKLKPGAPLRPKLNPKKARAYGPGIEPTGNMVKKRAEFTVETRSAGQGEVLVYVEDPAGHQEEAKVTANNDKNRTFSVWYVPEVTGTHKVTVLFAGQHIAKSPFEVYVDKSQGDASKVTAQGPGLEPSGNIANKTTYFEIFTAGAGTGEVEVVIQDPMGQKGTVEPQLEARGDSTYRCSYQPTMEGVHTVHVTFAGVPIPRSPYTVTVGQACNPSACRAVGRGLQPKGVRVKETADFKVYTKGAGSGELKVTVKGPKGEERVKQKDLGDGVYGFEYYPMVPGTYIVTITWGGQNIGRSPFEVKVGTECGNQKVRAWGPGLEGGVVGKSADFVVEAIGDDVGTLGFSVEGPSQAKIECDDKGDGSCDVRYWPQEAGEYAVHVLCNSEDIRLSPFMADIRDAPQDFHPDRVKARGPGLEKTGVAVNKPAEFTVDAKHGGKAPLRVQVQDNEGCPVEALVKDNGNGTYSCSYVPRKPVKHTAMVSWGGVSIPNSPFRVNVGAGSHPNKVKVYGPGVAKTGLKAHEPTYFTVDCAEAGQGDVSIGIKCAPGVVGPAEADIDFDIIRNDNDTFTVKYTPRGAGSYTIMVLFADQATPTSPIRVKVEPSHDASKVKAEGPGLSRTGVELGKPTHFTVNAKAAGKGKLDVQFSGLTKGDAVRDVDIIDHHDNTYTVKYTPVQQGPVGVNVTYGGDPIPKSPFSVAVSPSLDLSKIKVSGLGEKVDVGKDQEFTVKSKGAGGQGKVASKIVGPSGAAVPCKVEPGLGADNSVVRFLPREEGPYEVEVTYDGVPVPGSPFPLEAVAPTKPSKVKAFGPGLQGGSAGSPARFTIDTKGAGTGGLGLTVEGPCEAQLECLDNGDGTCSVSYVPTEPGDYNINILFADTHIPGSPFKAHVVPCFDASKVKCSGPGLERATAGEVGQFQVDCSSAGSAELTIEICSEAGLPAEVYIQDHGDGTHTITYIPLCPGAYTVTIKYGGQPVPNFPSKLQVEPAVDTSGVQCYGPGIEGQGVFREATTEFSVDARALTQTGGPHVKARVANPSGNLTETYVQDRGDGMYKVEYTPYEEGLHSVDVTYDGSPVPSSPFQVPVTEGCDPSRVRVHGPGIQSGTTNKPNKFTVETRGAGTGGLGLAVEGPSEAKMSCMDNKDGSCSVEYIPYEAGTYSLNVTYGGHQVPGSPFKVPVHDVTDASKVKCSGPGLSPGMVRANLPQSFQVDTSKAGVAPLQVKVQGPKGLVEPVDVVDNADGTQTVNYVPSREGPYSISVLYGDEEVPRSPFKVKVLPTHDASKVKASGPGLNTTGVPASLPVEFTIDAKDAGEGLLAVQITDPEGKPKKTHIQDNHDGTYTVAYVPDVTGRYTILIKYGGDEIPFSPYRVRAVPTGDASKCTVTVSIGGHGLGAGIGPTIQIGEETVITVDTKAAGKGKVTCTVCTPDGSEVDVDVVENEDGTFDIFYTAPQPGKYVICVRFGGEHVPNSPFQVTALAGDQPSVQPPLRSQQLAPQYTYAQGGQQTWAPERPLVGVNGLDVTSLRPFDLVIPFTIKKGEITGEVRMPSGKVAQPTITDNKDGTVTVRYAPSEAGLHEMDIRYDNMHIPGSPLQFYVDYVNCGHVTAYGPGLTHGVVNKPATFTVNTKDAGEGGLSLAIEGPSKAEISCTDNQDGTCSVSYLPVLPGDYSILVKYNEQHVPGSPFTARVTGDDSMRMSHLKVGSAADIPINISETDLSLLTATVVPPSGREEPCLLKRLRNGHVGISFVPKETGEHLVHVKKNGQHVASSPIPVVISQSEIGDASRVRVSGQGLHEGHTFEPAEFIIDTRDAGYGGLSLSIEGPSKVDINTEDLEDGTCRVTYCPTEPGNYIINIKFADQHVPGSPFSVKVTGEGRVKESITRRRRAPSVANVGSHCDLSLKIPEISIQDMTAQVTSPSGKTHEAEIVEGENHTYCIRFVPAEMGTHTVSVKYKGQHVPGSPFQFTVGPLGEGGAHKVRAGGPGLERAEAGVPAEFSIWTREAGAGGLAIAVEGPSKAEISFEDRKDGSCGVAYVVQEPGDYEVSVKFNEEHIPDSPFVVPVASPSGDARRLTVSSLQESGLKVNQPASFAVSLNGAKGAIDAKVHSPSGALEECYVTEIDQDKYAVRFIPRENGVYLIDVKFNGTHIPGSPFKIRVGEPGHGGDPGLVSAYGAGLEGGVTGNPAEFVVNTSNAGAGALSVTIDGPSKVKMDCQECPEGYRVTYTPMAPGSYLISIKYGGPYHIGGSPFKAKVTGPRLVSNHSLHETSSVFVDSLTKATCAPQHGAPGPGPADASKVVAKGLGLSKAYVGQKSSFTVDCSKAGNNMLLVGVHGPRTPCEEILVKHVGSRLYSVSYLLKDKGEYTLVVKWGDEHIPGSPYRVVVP
UniProt Q8BTM8: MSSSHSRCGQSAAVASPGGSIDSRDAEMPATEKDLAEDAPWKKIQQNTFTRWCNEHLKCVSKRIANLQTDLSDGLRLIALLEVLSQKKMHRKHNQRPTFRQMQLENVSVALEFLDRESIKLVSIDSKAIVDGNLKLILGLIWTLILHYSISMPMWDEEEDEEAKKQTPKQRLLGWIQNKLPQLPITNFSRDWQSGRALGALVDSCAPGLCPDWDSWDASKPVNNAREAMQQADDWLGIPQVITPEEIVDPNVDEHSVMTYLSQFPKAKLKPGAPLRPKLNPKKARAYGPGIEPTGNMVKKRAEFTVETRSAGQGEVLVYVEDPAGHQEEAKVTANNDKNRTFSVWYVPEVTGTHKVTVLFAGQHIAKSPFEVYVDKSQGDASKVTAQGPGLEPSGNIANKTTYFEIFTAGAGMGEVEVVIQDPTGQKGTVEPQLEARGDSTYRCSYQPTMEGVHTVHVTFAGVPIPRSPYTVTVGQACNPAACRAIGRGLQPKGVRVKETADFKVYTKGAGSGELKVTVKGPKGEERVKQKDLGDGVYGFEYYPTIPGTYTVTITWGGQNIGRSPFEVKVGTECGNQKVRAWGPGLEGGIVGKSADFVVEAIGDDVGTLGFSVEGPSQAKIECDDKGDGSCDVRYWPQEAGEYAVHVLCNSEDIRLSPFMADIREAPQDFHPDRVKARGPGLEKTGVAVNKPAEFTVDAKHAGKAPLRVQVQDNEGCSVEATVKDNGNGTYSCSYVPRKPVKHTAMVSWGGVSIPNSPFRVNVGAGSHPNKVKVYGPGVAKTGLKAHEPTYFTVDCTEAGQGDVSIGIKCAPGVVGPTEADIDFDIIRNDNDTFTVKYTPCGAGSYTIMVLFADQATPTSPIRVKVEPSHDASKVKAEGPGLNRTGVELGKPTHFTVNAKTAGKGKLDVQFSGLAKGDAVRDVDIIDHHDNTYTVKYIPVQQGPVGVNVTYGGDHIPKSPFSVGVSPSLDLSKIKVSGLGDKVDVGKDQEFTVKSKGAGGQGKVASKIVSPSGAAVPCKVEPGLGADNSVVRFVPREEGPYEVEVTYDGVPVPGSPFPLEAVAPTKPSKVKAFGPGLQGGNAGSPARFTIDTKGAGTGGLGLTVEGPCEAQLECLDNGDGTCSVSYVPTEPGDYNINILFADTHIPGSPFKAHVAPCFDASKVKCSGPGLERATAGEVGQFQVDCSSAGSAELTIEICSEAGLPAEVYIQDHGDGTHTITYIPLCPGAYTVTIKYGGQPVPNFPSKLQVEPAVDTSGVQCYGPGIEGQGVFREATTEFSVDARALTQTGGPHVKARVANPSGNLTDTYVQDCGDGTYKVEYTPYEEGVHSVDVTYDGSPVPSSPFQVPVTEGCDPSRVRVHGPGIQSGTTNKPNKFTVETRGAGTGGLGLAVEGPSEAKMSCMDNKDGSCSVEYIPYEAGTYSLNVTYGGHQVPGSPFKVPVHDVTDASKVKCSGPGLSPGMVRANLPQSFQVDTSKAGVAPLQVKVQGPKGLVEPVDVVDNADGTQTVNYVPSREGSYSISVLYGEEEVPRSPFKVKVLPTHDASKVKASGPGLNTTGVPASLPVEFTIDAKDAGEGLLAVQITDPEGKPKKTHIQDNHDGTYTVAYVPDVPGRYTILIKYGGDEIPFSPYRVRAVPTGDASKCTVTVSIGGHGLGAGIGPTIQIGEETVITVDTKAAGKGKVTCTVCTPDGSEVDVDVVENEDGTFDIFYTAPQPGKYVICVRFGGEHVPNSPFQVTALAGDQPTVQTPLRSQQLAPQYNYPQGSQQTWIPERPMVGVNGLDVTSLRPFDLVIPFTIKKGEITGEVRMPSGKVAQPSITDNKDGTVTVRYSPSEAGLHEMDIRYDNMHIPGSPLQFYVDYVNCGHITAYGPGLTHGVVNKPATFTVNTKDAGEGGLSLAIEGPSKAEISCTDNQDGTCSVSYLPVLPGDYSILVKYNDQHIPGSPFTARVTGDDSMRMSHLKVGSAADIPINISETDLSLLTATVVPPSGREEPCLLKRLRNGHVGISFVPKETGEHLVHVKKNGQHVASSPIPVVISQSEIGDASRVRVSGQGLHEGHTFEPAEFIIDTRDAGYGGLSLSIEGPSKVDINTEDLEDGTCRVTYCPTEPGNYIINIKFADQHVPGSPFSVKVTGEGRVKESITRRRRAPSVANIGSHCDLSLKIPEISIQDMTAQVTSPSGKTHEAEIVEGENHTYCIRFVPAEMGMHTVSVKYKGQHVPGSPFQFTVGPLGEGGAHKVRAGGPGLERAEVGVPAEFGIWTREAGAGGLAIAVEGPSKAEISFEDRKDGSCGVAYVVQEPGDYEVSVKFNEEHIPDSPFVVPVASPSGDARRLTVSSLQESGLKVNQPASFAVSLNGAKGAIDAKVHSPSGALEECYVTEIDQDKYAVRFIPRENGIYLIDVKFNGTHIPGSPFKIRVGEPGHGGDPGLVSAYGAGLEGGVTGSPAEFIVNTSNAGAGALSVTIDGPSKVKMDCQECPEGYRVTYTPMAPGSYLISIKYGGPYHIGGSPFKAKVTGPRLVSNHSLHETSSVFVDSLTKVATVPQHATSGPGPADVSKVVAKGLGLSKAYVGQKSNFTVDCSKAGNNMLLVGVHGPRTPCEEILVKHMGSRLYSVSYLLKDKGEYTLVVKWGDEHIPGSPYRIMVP
UniProt P51681: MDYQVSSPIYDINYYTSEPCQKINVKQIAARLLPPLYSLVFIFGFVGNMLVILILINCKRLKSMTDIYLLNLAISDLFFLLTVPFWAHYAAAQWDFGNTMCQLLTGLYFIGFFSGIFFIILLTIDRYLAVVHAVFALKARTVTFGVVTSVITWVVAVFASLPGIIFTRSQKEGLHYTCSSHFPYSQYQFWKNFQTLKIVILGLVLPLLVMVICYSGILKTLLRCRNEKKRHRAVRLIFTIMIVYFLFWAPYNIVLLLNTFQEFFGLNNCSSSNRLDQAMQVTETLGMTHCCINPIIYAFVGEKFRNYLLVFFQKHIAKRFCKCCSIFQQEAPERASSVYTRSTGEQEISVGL
UniProt P61073: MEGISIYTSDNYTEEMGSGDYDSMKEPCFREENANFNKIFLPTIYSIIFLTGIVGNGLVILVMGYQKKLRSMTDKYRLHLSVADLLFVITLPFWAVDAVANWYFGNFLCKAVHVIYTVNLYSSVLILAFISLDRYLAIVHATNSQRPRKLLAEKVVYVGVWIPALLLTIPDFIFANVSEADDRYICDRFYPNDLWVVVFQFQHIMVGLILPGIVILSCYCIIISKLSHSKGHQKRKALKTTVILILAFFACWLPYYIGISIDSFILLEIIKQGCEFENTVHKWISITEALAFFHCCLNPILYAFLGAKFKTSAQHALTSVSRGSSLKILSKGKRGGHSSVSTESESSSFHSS
UniProt P70658: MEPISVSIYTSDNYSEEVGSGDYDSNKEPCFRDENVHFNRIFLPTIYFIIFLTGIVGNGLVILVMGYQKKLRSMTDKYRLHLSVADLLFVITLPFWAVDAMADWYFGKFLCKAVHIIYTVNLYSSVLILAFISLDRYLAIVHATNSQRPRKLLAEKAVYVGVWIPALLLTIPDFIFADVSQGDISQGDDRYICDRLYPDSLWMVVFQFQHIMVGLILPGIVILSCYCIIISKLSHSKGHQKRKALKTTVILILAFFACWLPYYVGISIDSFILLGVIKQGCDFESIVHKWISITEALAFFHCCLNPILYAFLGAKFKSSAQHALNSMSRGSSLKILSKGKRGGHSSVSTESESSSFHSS

These are yes or no findings as the source states them, for the method shown. In cells and extracts the contact can be indirect. Some results given as binding are weak or reduced against the parent protein; the word gives no strength.

Experiment [1] concerns the target filamin A, human brain (human (endogenous in postmortem frontal cortex)) (UniProt P21333). Put plainly: co-IP; synaptosomes from frontal cortical slices of 11 matched AD and control subjects, slices incubated with K-R or 1 nM simufilam; anti-FLNA (SC-7565) on protein A/G agarose, 16 h 4 °C; blots for CCR5, CD4 and CXCR4.
Experiment [2] deals with filamin A, mouse brain (mouse (endogenous in brain)) (UniProt Q8BTM8). The experiment can be described thus: co-IP; synaptosomes from brains of wildtype and 3xTg AD mice (6 or 10 months) after 2 months of water or oral simufilam 22 mg/kg/d; anti-FLNA (SC-17749) on protein A/G agarose, 16 h 4 °C; blots for CCR5, CD4 and CXCR4.
Experiment [3] has as its target filamin A, human brain (human (endogenous in postmortem frontal cortex)) (UniProt P21333). The experiment can be described thus: co-IP; synaptosomes from frontal cortical slices of 3 non-demented control subjects, slices incubated with K-R, 100 nM Aβ42, 10 μg/mL LTA-SA or 1 μg/mL PGN-SA with or without 1 or 10 nM simufilam (37 °C, 30 min); anti-FLNA (SC-7565) on protein A/G agarose, 16 h 4 °C, 25 mM HEPES pH 7.5, 200 mM NaCl, 1 mM EDTA; blot for TLR2.

With “C-C chemokine receptor type 5, human brain (from UniProt P51681 1-352)”, the binding result in experiment [1] is “binds”.
As to “C-C chemokine receptor type 5, mouse brain (from UniProt P51682 1-354)”, the binding result in experiment [2] was “binds”.
Consider “C-X-C chemokine receptor type 4, human brain (from UniProt P61073 1-352)”, for which, in experiment [1], the binding result is “binds”.
For the substance “C-X-C chemokine receptor type 4, mouse brain (from UniProt P70658 1-359)”, the binding entry in experiment [2] is “binds”.
As for “T-cell co-receptor cluster of differentiation 4, mouse brain (from UniProt P06332 27-457)”, the binding result in experiment [2] is “binds”.
In the case of “Toll-like receptor 2, human brain (from UniProt O60603 21-784)”, the binding result in experiment [3] was “binds”.
